From publication PMC9433385
Results are given in words; binding and its absence hold for the method and conditions named. Binding seen in cells or lysates may run through a third protein. A yes stands for co-enrichment or nearness to the bait. Other partners may have been found.

Sequences of proteins named here, by UniProt entry; tags and fusion partners are left off.
UniProt A2A432: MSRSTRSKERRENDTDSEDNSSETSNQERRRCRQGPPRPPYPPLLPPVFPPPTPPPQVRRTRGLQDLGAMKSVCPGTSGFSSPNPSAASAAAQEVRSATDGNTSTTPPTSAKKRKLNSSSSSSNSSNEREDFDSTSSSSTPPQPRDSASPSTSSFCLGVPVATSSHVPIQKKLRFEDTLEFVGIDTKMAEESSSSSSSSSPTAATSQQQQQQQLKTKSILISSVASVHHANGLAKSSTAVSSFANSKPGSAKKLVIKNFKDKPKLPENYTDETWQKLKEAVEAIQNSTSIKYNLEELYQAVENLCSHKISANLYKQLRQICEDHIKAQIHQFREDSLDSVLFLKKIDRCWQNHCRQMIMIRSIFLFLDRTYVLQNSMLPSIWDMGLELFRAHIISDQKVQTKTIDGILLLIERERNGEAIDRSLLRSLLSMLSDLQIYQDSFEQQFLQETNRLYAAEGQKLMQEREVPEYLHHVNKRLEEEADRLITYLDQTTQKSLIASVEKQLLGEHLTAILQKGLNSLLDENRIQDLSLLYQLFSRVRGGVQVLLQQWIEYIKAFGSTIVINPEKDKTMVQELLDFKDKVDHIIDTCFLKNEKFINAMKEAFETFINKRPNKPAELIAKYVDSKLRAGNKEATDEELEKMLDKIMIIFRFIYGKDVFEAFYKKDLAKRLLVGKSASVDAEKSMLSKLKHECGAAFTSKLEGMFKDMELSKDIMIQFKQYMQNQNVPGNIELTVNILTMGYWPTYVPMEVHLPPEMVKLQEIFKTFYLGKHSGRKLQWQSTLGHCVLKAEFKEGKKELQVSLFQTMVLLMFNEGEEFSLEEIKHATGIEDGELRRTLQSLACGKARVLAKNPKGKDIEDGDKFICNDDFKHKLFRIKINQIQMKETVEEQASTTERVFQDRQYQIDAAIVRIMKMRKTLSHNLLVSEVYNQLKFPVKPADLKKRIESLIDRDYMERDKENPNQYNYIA

B1: WDR1 (protein, UniProt O88342 1-606)
chain: MPYEIKKVFASLPQVERGVSKILGGDPKGDHFLYTNGKCVILRNIDNPAIADIYTEHAHQVVVAKYAPSGFYIASGDISGKLRIWDTTQKEHLLKYEYQPFAGKIKDIAWTEDSKRIAVVGEGREKFGAVFLWDTGSSVGEITGHNKVINSVDIKQTRPYRLATGSDDNCAAFFEGPPFKFKFTIGDHSRFVNCVRFSPDGNRFATASADGQIFIYDGKTGEKVCALGESKAHDGGIYAISWSPDSTHLLSASGDKTSKIWDVNVNSVVSTFPMGSNVLDQQLGCLWQKDHLLSISLSGYINYLDKNNPSKPLRVIKGHSKSIQCLTVHRNGGKSYIYSGSHDGHINYWDSETGENDSFSGKGHTNQVSRMTVNESEQLVSCSMDDTVRYTNLTLRDYSGQGVVKLDVQPKCVAVGPGGYTVVVCIGQIVLLKDQKKCFSIDNPGYEPEVVAVHPGGDTVAVGGTDGNVRVYSILASTLKDEGKLLEAKGPVTDVAYSHDGAFLAVCDASKVVTVFSVADGYSENNVFYGHHAKIVCLAWSPDNEHFASGGMDMMVYVWTLSDPETKVKIQDAHRLHHVSSLAWLDEHTLVTTSHDASVKEWTITY
B2: WDR3 (protein, UniProt Q8BHB4 1-942)
chain: MGLTKQYLRYVASAVFGLIGSQKGNIVFVTLRGEKGRYVAVPACEHVFIWDLRKGEKILILQGNKQEVTCLCPSPDGLHLAVGYEDGAIRIFSLLSGEGNITFNGHKAAVTSLKYDQLGGRLASGSKDTDVIIWDVINESGLYRLKGHKDAVTQALFLRERNLLVTSGKDTMVKWWDLDNQHCFKTMVGHRTEVWGLVLVSEEKRLITGAADSELRAWDIDYLQEIDDPEEPEPKKIKECPGIQDTPESEDSTLEADDEKSEDRILSCSKAGSIMREGRDRVVNLAVDKTGRILACHGTDSVLEVFCILSKAEVQKKMDKKLKKARKKARLNSANEEEDPETSVSMTLQDEILRVAKIKTSAKIKSFDLIHSPQGELKAVFLLQNNLVELYSLNASLPAPQPVRTSRITIGGHRSDVRTLSFSSDNIAVLSAAADSIKIWNRSTLQCIRTMPCEYALCSFFVPGDRQVVIGTKTGNLQLYDLASGTLLETIAAHDGALWSMSLSPDQRGFVTGGADKAVKFWDFELVTDKNSTQKRLSVKQTRTLQLDEDVLCVSYSPNQKLLAVSLLDCTVKVFYVDTLKFFLSLYGHKLPVLCMDISHDGALIATGSADRNVKIWGLDFGDCHRSLFAHDDSVMYLRFVPKSHLFFTAGKDHKIKQWDADKFEHIQTLEGHHQEIWCLAVSPSGDYVVSASHDKSLRLWERTREPLILEEEREMQREAEYEESVAKEDQPAVPGETQGDNYFTGKKTIETVKAAERIMEAIELHREETAKMKEHRAICKAAGKEVPLPVNPILMAHGNISPSAYVLETFKGIRSSELEEALLVLPFSYVPDVLTLFNEFIQTGLDVELLCRCLFFLLRIHFGQITSNQMLVPVIEKLKETTISKVRQVQDAIGFNMAGLDYLKRECEAKSEVMFFAEATSHLEEKKKKRKNRKRMILTLT
B3: WDR18 (protein, UniProt Q4VBE8 1-431)
chain: MAAPMEVVVCTDAAAQLWSCVVWELHSGANLLTYRGGQAGPRGLALLNGEYLLAAQQGKNYICAWELQRKDQLQQKIMCPGPVTCLTTAPNGLYVLAGIAESIYLWEVCTGNLLVILSRHYQDVSCLKFTGDGSHFVSAGKDCLALAWSLCSVLQADPSRILAPRHVWSQHTLPITDLHCGFGGPMARVATASLDQTVKLWAISSGDLLLSVLFDMGITSVTMDLAEHHIFCGGSDGSIFQVDLCSWPGLREHSFQPEQNTGKVFKGHRNQVTCLSVSTDGSVLLSGSHDESVRLWDVKSKQCLRTVTLKGPVTNAAIILAPPSMLNPEFRPSLPLPHFNKHLLGAEHGDEAQGGGLRLQLGLHLQGKEPSYLERLEQLQAVLSSYLEKNMLGSQMLPARVFDLEDEVRSLRKINRDLFDFSTRIITRPSK

target: CUL4B (bait of the mass spectrometry of CUL4B-interacting proteins) (UniProt A2A432); experiment: affinity purification with mass spectrometry; CUL4B-interacting proteins identified by mass spectrometry; source and procedure not told

Binder | binding
B1 | binds
B2 | binds
B3 | binds
